# Measurements reported in the supplement of paper PMC12819154, “High-throughput peptide-centric local stability assay extends protein–ligand identification to membrane proteins, tissues and bacteria” (Nature Structural & Molecular Biology, 2025).
# By UniProt entry, the sequences of proteins in these tests, tags left out. Where a name states a change or a piece, a line headed by the entry shows the natural chain unless it says otherwise.
# UniProt Q14031: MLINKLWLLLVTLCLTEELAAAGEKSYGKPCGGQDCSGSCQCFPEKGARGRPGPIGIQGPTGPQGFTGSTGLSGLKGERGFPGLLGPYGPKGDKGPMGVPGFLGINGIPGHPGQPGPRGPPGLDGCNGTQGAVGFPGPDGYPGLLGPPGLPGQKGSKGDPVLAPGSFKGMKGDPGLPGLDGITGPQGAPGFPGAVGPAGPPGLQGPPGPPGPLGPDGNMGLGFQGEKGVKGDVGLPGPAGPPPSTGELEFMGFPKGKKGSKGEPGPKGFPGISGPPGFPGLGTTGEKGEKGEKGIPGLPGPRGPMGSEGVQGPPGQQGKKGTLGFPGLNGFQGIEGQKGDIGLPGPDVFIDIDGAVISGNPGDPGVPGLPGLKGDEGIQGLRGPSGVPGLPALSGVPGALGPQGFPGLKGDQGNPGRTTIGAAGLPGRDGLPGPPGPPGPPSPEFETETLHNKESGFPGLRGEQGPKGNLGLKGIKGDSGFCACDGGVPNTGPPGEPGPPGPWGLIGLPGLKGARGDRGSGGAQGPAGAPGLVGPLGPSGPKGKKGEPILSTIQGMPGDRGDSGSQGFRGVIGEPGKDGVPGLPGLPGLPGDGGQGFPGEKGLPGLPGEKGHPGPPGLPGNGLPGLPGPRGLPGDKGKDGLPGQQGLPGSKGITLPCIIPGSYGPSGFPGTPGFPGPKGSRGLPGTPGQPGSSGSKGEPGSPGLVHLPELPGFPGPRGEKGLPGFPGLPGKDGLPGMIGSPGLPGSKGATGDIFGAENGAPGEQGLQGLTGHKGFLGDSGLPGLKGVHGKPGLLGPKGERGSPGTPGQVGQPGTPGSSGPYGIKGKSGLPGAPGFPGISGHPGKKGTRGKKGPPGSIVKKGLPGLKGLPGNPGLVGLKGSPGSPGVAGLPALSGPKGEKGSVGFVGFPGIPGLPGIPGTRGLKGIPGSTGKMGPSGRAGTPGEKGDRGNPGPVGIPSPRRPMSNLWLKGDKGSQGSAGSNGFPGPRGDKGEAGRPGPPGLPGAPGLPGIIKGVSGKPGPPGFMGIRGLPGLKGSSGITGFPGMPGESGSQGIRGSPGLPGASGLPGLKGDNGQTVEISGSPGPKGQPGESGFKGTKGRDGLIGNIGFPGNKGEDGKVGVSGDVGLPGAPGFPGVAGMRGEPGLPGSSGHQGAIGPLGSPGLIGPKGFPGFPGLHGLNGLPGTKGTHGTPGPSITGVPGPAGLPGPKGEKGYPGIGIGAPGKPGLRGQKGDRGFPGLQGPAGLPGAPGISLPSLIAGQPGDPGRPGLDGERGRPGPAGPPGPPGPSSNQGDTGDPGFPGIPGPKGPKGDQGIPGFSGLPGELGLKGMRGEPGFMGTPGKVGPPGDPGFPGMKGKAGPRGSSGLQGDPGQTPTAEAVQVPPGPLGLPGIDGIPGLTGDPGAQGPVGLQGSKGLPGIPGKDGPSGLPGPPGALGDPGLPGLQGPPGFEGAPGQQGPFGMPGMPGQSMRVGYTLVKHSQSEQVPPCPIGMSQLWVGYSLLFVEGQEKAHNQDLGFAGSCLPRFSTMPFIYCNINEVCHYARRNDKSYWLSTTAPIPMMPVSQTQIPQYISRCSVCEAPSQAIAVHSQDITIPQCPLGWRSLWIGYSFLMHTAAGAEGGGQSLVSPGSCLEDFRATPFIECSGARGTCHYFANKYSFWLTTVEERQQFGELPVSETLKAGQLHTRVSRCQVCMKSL
# UniProt Q13442: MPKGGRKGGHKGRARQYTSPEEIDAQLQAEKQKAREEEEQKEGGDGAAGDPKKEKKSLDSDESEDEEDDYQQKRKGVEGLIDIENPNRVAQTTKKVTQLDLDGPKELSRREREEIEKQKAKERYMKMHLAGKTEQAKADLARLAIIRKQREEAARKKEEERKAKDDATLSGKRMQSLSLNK
# UniProt Q14919: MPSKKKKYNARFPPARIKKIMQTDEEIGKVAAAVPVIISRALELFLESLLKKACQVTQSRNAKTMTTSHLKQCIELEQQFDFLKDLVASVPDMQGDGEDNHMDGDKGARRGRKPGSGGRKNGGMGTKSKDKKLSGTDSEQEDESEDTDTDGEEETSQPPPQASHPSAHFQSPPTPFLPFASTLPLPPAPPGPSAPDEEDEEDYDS
# UniProt Q15043: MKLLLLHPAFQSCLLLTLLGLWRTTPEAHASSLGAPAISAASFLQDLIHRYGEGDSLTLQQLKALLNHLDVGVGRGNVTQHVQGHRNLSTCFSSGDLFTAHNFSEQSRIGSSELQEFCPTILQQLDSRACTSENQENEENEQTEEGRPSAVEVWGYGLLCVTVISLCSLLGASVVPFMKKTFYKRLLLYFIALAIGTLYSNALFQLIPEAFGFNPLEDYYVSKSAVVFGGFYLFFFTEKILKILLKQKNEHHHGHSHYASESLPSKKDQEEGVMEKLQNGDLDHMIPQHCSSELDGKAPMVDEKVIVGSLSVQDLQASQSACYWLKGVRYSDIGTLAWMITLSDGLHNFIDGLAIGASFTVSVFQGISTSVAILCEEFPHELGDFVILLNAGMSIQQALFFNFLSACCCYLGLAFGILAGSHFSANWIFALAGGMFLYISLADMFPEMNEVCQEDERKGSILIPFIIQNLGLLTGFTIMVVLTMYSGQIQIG
# UniProt Q14683: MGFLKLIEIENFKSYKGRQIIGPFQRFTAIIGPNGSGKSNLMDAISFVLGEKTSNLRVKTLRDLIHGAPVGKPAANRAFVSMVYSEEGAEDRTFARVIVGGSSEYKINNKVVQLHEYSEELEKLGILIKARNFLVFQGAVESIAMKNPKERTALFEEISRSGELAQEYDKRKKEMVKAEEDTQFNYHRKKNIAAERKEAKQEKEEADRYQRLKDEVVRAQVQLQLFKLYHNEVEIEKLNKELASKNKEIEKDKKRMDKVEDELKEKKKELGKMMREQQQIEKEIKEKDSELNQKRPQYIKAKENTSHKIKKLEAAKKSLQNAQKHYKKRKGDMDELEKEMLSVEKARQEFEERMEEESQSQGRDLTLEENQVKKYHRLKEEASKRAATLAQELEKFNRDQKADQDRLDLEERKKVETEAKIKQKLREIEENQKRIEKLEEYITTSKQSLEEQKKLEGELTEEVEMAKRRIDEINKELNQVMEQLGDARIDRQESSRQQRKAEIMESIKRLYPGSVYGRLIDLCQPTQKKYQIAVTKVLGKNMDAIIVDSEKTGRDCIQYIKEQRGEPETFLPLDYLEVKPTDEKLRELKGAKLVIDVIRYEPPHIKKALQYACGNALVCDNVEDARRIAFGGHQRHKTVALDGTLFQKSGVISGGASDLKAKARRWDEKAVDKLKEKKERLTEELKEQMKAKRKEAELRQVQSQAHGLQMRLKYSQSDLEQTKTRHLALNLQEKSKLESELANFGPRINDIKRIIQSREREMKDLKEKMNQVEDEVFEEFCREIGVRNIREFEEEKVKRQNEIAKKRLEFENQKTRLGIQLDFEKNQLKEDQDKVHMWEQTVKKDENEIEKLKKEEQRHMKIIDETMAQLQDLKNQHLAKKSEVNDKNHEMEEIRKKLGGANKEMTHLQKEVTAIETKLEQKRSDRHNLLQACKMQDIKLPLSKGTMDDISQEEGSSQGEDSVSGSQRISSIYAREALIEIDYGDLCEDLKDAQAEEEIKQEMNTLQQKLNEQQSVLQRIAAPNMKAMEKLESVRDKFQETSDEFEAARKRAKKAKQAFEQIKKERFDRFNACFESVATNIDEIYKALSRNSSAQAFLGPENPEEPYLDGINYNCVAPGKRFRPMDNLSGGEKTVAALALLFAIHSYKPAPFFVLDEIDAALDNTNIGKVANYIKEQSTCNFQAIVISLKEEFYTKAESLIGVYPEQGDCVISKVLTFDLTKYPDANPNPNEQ
# UniProt Q14244: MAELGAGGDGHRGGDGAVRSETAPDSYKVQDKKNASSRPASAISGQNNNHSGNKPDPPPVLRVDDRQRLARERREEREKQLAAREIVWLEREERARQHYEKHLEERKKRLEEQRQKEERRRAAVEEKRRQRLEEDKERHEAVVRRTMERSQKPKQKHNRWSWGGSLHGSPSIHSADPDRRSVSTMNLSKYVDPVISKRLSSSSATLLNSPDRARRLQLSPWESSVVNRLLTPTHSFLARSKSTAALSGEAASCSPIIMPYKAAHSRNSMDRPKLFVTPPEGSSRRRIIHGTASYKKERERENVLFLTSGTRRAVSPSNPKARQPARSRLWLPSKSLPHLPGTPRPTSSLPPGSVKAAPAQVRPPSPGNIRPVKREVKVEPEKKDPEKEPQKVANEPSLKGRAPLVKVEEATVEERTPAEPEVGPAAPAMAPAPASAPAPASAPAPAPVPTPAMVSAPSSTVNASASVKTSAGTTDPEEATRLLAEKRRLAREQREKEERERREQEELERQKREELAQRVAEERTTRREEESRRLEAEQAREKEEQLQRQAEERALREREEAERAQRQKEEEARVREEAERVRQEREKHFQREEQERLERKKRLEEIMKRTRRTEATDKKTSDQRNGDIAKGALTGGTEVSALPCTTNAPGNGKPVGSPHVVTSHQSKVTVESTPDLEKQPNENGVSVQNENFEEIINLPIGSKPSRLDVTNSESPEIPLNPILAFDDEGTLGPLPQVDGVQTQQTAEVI
# UniProt Q13190: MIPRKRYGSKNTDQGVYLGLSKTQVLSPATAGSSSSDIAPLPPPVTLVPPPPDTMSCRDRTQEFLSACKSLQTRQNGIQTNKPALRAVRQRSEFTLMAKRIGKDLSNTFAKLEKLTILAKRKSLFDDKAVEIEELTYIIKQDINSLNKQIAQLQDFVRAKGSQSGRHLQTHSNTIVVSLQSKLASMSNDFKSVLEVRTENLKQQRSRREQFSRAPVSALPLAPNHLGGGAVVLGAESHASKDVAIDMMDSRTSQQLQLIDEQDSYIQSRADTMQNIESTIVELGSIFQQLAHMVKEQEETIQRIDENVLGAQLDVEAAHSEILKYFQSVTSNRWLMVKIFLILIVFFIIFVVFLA
# UniProt Q13772: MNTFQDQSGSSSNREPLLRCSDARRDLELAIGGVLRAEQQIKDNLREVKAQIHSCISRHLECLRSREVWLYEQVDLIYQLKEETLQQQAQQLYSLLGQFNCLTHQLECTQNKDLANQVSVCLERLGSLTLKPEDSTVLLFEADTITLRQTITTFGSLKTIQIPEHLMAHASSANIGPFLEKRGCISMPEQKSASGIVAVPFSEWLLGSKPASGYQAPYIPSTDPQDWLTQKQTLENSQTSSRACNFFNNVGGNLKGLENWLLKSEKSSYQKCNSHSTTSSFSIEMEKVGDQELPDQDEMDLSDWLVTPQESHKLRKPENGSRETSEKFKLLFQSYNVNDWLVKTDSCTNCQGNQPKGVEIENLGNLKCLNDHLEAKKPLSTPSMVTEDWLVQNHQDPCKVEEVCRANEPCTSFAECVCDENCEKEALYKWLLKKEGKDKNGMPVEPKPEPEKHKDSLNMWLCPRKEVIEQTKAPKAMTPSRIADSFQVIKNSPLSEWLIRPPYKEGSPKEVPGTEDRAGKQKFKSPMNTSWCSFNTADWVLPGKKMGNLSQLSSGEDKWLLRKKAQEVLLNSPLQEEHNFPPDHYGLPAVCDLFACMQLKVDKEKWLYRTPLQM
# UniProt Q15034: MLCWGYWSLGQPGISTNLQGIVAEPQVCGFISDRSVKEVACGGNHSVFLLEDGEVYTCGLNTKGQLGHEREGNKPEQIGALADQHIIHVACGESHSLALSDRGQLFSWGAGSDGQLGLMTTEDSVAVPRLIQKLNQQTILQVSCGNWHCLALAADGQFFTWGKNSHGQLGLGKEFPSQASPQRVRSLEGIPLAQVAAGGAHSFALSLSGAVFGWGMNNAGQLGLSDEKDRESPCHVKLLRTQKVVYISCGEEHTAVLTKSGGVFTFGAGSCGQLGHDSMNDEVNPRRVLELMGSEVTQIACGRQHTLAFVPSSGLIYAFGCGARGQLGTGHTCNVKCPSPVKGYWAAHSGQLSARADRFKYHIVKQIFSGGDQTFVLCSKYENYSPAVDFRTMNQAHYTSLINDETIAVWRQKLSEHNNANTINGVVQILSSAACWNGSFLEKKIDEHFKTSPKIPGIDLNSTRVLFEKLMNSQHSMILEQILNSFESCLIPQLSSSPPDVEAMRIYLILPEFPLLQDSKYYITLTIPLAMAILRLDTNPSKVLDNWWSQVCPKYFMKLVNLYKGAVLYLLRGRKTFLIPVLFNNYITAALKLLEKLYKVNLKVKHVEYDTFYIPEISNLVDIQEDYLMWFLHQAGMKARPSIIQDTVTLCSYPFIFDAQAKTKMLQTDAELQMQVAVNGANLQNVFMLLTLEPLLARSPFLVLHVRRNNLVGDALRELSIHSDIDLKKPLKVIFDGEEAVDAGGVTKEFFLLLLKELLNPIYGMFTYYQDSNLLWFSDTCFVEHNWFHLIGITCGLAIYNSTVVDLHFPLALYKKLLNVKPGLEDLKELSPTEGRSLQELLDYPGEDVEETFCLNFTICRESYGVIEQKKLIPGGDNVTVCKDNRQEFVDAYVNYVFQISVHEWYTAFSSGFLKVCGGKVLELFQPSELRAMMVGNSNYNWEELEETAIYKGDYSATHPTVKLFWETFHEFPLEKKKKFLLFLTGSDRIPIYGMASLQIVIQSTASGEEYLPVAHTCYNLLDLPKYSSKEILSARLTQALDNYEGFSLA
# Some of the results follow. Most entries show no effect beyond the scatter of the controls.
# Compound: CN[C@@H]1C[C@H]2O[C@@](C)([C@@H]1OC)n1c3ccccc3c3c4c(c5c6ccccc6n2c5c31)C(=O)NC4 [staurosporine]
# Assay: log2 fold change of tryptic peptide abundance, ligand vs vehicle (limited proteolysis) (log2 ratio); higher = more trypsin-susceptible (destabilized)
# Details: ligand concentration: 20 uM; sample: K562 cleared lysate; digestion: 4 min, 22 C (HT-PELSA RT4min, Orbitrap Astral)
row,Target,log2 fold change
1,"SQSTM1 (peptide sequence: VAALFPALRPGGFQAHYR, peptide start residue: 51) (UniProt Q13501)",-0.2
2,"TARBP1 (peptide sequence: GRPAGGPDPSLQPR, peptide start residue: 78) (UniProt Q13395)",-0.271
3,"UniProt Q14031 (peptide sequence: AGTPGEKGDR, peptide start residue: 938)",-0.526
4,"TRIP12 (peptide sequence: GLPPHLFGPLGPR, peptide start residue: 410) (UniProt Q14669)",-0.185
5,"CTBP1 (peptide sequence: IRGAALDVHESEPFSFSQGPLK, peptide start residue: 284) (UniProt Q13363)",-0.166
6,"UniProt Q14094 (peptide sequence: LSPSQHLAVLTK, peptide start residue: 172)",0.566
7,"PDAP1 (peptide sequence: KQREEAAR, peptide start residue: 148) (UniProt Q13442)",1.37
8,"GAMT (peptide sequence: WETPYMHALAAAASSK, peptide start residue: 45) (UniProt Q14353)",0.811
9,"MORC3 (peptide sequence: IPEDLDEITGKK, peptide start residue: 221) (UniProt Q14149)",-0.525
10,"DRAP1 (peptide sequence: ALELFLESLLKK, peptide start residue: 41) (UniProt Q14919)",0.168
11,"USP10 (peptide sequence: IEFGVDEVIEPSDTLPR, peptide start residue: 57) (UniProt Q14694)",-0.19
12,"SLC39A14 (peptide sequence: DQEEGVMEK, peptide start residue: 268) (UniProt Q15043)",-0.192
13,"UniProt Q15006 (peptide sequence: ALFGLYMSASHIASNPK, peptide start residue: 228)",0.432
14,"XRCC4 (peptide sequence: FILVLNEK, peptide start residue: 180) (UniProt Q13426)",-0.138
15,"TP53BP2 (peptide sequence: VPPPVPTKPK, peptide start residue: 498) (UniProt Q13625)",0.265
16,"SMC1A (peptide sequence: GEPETFLPLDYLEVKPTDEKLR, peptide start residue: 565) (UniProt Q14683)",0.278
17,"MAP7 (peptide sequence: EIVWLEREER, peptide start residue: 85) (UniProt Q14244)",-0.127
18,"IQCB1 (peptide sequence: EAEGKEPELFLSR, peptide start residue: 529) (UniProt Q15051)",-0.332
19,"URB2 (peptide sequence: ASLQPGMR, peptide start residue: 1491) (UniProt Q14146)",0.497
20,"STX5 (peptide sequence: HLQTHSNTIVVSLQSK, peptide start residue: 167) (UniProt Q13190)",-0.158
21,"NCOA4 (peptide sequence: GVEIENLGNLK, peptide start residue: 357) (UniProt Q13772)",-0.186
22,"BYSL (peptide sequence: LQPHPQLSPEIRR, peptide start residue: 407) (UniProt Q13895)",-0.661
23,"SMAD4 (peptide sequence: CDSVCVNPYHYER, peptide start residue: 123) (UniProt Q13485)",-0.0691
24,"HERC3 (peptide sequence: GYWAAHSGQLSAR, peptide start residue: 343) (UniProt Q15034)",0.147
25,"NCOA6 (peptide sequence: MVVPEDQSKK, peptide start residue: 1451) (UniProt Q14686)",0.341
26,"ITPR3 (peptide sequence: LQHAAQMEQK, peptide start residue: 93) (UniProt Q14573)",0.807
27,"CUL3 (peptide sequence: NAYTMVLHK, peptide start residue: 60) (UniProt Q13618)",0.514
28,"TRIM28 (peptide sequence: FQWDLNAWTK, peptide start residue: 391) (UniProt Q13263)",-0.122

# From entry 18 as far as 19, copied from above:
row,Target,log2 fold change
18,"IQCB1 (peptide sequence: EAEGKEPELFLSR, peptide start residue: 529) (UniProt Q15051)",-0.332
19,"URB2 (peptide sequence: ASLQPGMR, peptide start residue: 1491) (UniProt Q14146)",0.497
